PubChem BioAssay AID1259275 | Sanger Institute – 2017
This is one part, drawn at random, of 794 reagents. Over the whole deposit, 13 (1.6%) are marked active. 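Calls mark knock-downs lethal by themselves, not drug synergy; drugs went in a day after transfection, with DMSO as vehicle.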 Not all columns of the deposit are shown. Reagent sequences are not shown. The record does not give: the amount of reagent, the time to read-out.

Screen: 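Kinase and colorectal cancer genes needed for cancer cell survival, with or without drugs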 (primary screen)
Cell system: COLO320HSR human colorectal cancer cells
Reagents: siRNA pool against human genes
Challenge: anchor drug added one day after transfection: BYL719 at 1 µM, cetuximab at 5 µg/ml or trametinib at 10 nM; DMSO as vehicle arm
Measurement: 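Viability averaged over replicates as a fraction of the non-targeting pool, a robust z-score for knock-down alone, and synergy scores with BYL719 (1 µM), cetuximab (5 µg/ml) or trametinib (10 nM)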
Direction: robust z-score, siRNA alone: higher = more viable cells; strongly negative means essential
Rule for the call: 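Essential means the knock-down by itself gives a robust z-score lower than -3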
Calls: active = essential (siRNA alone); inactive = no change (siRNA alone)

CDK16 (GeneID 5127) | robust z-score, siRNA alone: 0.726; activity call: inactive
CHUK (GeneID 1147) | robust z-score, siRNA alone: 0.726; activity call: inactive
MYLK (GeneID 4638) | robust z-score, siRNA alone: -0.185; activity call: inactive
NEK8 (GeneID 284086) | robust z-score, siRNA alone: -0.0321; activity call: inactive
MOS (GeneID 4342) | robust z-score, siRNA alone: 0.151; activity call: inactive
TP53RK (GeneID 112858) | robust z-score, siRNA alone: 0.726; activity call: inactive
PIM3 (GeneID 415116) | robust z-score, siRNA alone: 0.618; activity call: inactive
PHKA2 (GeneID 5256) | robust z-score, siRNA alone: -1.14; activity call: inactive
CDK5R1 (GeneID 8851) | robust z-score, siRNA alone: -0.389; activity call: inactive
CDK17 (GeneID 5128) | robust z-score, siRNA alone: 0.726; activity call: inactive
CERK (GeneID 64781) | robust z-score, siRNA alone: 0.726; activity call: inactive
CDKN2C (GeneID 1031) | robust z-score, siRNA alone: -0.7; activity call: inactive

Look-ups from the list.
Result of CDKN2C (GeneID 1031) in “activity call”: inactive
Entry for PIM3 (GeneID 415116) under “robust z-score, siRNA alone”: 0.618
